Results published in PubChem BioAssay AID1487 (National Center for Advancing Translational Sciences (NCATS), 2009).
The list shows a part of the results. Further columns of the screen follow, without active or inactive calls. Most of these compounds were active or inconclusive in the main read-out, so they are no random draw. The note in brackets gives the kind of curve behind each potency; many fits are weak.

Experiment: qHTS Assay for Modulators of Lamin A Splicing
Conditions: HeLa LMNA splicing GFP/RFP minigene ratio, 48 h
Outline: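 S3 HeLa stable clones carrying a lamin A-EGFP splicing minigene plus DsRed2 were seeded at 600 cells/well in Opti-MEM with 2% FBS, pin-dosed and incubated 48 h at 37°C. Acumen cytometry (488 nm) gave the GFP/RFP total-intensity ratio.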

[1] = measured here: GFP splicing reporter channel
[2] = measured here: RFP viability control channel

| Structure (SMILES) | AC50 [1] | AC50 [2] |
| --- | --- | --- |
| CC(=O)Nc1ccc(Nc2ncnc3c2c(-c2ccccc2)cn3-c2ccccc2)cc1 | 0.00316 µM [falling, full curve, poor fit] | – |
| Cc1cc(N2CCN(c3ccccc3Cl)CC2)n2cc(-c3ccccc3)nc2n1 | 11.2 µM [falling, partial curve, poor fit] | – |
| CCOC(=O)c1ccc(-n2c(CN3CCN(CC)CC3)nc3ccc([N+](=O)[O-])cc3c2=O)cc1 | 3.16 µM [rising, single point] | – |
| Cc1ccc(OC(C)c2nnc(N)s2)cc1Cl (configuration not stated) | 11.2 µM [rising, partial curve] | 14.1 µM [rising, partial curve] |
| CCOC(=O)c1ccc(NC(=O)C2CCN(C(=O)c3ccc(OC)c(OC)c3)CC2)cc1 | 15.8 µM [rising, single point] | 25.1 µM [rising, single point] |
| CC(C)c1ccc(S(=O)(=O)N2CCCCC2)cc1 | 0.00501 µM [rising, full curve] | – |
| CCOc1ccc2nc(N3CCN(C(=O)CS(=O)(=O)c4ccc(F)cc4)CC3)sc2c1 | 12.6 µM [falling, single point] | 11.2 µM [falling, single point] |
| CCOc1cc(CNc2ccc(N(C)C)cc2)cc(Br)c1OCC(=O)NC(C)(C)C | – | 11.2 µM [rising, single point] |
| Cc1ccc(NC(=O)CN2C(=O)S/C(=C\c3cc(C)n(-c4ccc(C(=O)O)cc4)c3C)C2=O)cc1 | 0.141 µM [falling, partial curve, poor fit] | – |
| COc1ccc(CNC(=O)CSc2nnc(-c3ccc(NC(C)=O)cc3)n2C)cc1 | 3.55 µM [rising, single point] | 5.01 µM [rising, single point] |
| CCn1c(CCNC(=O)c2cccs2)nnc1SCC(=O)Nc1nc(-c2ccccc2)cs1 | – | 15.8 µM [rising, single point] |
| Cc1ccccc1NC(=S)NC(NC(=O)COc1ccccc1)C(Cl)(Cl)Cl (configuration not stated) | 5.62 µM [rising, full curve, poor fit] | 7.08 µM [rising, partial curve, poor fit] |
| CC(C)CCC(O)(CCC(C)C)C(=O)NNc1ccccc1 | 11.2 µM [rising, single point] | – |
| O=C(O)c1ccccc1OCCOc1ccccc1 | 4.47 µM [rising, partial curve, poor fit] | – |
| O=C(Nc1cc(C(F)(F)F)ccc1Cl)C(Sc1nnc(-c2cccs2)o1)c1ccccc1 (configuration not stated) | – | 17.8 µM [rising, single point] |
| CC(NS(=O)(=O)c1ccc(OCC(=O)Nc2cccc([N+](=O)[O-])c2)cc1)c1ccccc1 (configuration not stated) | 10 µM [rising, partial curve, poor fit] | 11.2 µM [rising, partial curve, poor fit] |
| CCOC(=O)c1noc2nc(C)n(CC(=O)Nc3cc(Cl)ccc3OC)c(=O)c12 | 0.00316 µM [falling, full curve, poor fit] | – |
| Cc1cc(C)c(C#N)c(SCc2ccc3c(c2)OCO3)n1 | – | 12.6 µM [rising, single point] |

In the list so far, these contain a thiophene ring, fused or not.

| Structure (SMILES) | AC50 [1] | AC50 [2] |
| --- | --- | --- |
| CCn1c(CCNC(=O)c2cccs2)nnc1SCC(=O)Nc1nc(-c2ccccc2)cs1 | – | 15.8 µM [rising, single point] |
| O=C(Nc1cc(C(F)(F)F)ccc1Cl)C(Sc1nnc(-c2cccs2)o1)c1ccccc1 (configuration not stated) | – | 17.8 µM [rising, single point] |

(further entries)

| Structure (SMILES) | AC50 [1] | AC50 [2] |
| --- | --- | --- |
| O=C(COC(=O)c1ccc(Br)o1)Nc1cccc(S(=O)(=O)N2CCCCCC2)c1 | 25.1 µM [rising, single point] | 35.5 µM [rising, single point] |
| CCOC(=O)c1ccc(NC(=S)N(CCN(C)C)Cc2cccs2)cc1 | 11.2 µM [falling, partial curve, poor fit] | – |
| CCOC(=O)c1c(-c2ccccc2)[nH]c2ccc(O)cc12 | – | 7.94 µM [rising, partial curve] |
| COc1ccc(OCCCC(=O)Nc2cccc([N+](=O)[O-])c2)cc1 | – | 35.5 µM [rising, single point] |
| Oc1c(C(c2ccccc2)N2CCN(Cc3ccccc3)CC2)sc2nc(-c3ccco3)nn12 (configuration not stated) | 0.0126 µM [falling, full curve] | 0.0891 µM [falling, full curve, poor fit] |
| COC(=O)/C=C1/N/C(=N\c2nc(C)cc(C)n2)N(c2cccc(C)c2)C1=O | 17.8 µM [rising, single point] | 35.5 µM [rising, single point] |
| COC(CNC(=O)C1CCCN(S(=O)(=O)c2c(C)noc2/C=C/c2cccs2)C1)OC (configuration not stated) | – | 10 µM [falling, partial curve, poor fit] |
| Cc1ccc(S(=O)(=O)N(C)C)cc1NC(=O)COC(=O)c1n[nH]c(=O)c2ccccc12 | 7.08 µM [falling, full curve] | – |
| CC(C)C/C(O)=C/c1nc2cc(Cl)ccc2oc1=O | – | 10 µM [rising, partial curve] |
| Cc1ccc(-c2nc3scc(CCNC(=O)c4cccc(Br)c4)n3n2)cc1 | 35.5 µM [falling, single point] | 0.00794 µM [falling, full curve, poor fit] |
| CSc1ncc(Cl)c(C(=O)Nc2ccccc2Cl)n1 | – | 0.0224 µM [rising, full curve, poor fit] |
| O=C(Nc1ccc(-c2noc(-c3cccs3)n2)cc1)c1cccnc1 | – | 35.5 µM [rising, single point] |
| CC(=O)c1ccc(NC(=O)c2ccc(CSc3ccccc3)o2)cc1 | 17.8 µM [rising, partial curve] | 14.1 µM [rising, partial curve] |
| Cc1cc(C)n2nc(C(=O)NC(c3ccccc3)c3ccccc3)nc2n1 | – | 11.2 µM [falling, single point] |
| CCOC(=O)c1sc(NC(=O)c2c(C)nn(Cc3ccccc3)c2C)cc1C | 35.5 µM [rising, single point] | 35.5 µM [rising, single point] |
| Cn1c(=O)c2c(nc(NC3CCCCC3)n2CC(O)COc2ccccc2)n(C)c1=O (configuration not stated) | 11.2 µM [rising, single point] | – |
| O=C(Cn1c(=O)n(Cc2ccco2)c(=O)c2c3c(sc21)CCCCC3)Nc1ccccc1 | 35.5 µM [rising, single point] | – |
